Reference: paper doi:10.1101/2025.11.03.686312
These are yes or no findings as the source states them, for the method shown. In cells and extracts the contact can be indirect. A yes stands for co-enrichment or nearness to the bait. Other partners may have been found.

T1: ClC-5 V523Δ, stably expressed in RPTEC/TERT1 cells depleted of endogenous CLCN5 (human) (UniProt P51795)
T1 sequence: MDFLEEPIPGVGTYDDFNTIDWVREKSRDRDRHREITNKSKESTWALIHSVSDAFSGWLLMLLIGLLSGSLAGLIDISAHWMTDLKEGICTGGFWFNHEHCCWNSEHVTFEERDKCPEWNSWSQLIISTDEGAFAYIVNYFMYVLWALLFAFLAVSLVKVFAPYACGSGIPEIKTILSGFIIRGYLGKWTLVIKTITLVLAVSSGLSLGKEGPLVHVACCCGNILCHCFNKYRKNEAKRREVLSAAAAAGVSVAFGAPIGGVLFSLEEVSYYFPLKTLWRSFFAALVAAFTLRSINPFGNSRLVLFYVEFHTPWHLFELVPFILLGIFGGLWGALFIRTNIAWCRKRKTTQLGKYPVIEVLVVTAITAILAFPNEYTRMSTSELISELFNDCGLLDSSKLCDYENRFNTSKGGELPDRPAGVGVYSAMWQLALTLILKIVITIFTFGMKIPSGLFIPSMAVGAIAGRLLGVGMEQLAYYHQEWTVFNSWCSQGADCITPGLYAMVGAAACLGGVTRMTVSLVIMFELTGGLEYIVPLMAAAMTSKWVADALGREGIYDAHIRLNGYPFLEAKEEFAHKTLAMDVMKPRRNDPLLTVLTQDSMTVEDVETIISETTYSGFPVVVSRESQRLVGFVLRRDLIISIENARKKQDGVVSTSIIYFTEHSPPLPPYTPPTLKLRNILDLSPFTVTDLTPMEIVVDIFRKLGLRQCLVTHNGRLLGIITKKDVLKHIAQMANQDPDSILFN

T2: ClC-5 WT (Cl-/H+ antiporter ClC-5), stably expressed in RPTEC/TERT1 cells depleted of endogenous CLCN5 (human) (UniProt P51795)
T2 sequence: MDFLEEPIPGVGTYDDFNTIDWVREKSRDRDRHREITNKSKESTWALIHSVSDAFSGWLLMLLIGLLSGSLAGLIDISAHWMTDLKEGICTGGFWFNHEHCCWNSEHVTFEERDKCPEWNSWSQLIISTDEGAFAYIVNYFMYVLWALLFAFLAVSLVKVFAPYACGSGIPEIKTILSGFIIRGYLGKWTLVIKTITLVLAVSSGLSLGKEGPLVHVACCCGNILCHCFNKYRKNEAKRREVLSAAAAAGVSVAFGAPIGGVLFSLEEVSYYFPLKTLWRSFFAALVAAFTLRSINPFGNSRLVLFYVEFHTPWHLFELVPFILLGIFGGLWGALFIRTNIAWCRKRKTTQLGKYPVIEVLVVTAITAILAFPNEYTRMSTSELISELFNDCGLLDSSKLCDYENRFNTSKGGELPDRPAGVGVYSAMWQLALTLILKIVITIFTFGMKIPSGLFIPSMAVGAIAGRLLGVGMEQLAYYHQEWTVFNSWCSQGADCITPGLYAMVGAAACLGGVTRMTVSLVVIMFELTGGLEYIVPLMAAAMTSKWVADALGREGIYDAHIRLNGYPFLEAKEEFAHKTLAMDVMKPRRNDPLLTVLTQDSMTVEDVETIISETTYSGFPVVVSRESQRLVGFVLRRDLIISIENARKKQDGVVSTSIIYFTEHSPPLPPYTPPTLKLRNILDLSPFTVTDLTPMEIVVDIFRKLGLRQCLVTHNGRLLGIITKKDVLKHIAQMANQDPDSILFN

B1: DENND3, endogenous in RPTEC/TERT1 cells (protein, UniProt A2RUS2 1-1198)
chain: MRSLRKKREKPRPEQWKGLPGPPRAPEPEDVAVPGGVDLLTLPQLCFPGGVCVATEPKEDCVHFLVLTDVCGNRTYGVVAQYYRPLHDEYCFYNGKTHRECPGCFVPFAVCVVSRFPYYNSLKDCLSCLLALLKPCKDFEVDSHIKDFAAKLSLIPSPPPGPLHLVFNMKSLQIVLPARADPESPILDLDLHLPLLCFRPEKVLQILTCILTEQRIVFFSSDWALLTLVTECFMAYLYPLQWQHPFVPILSDQMLDFVMAPTSFLMGCHLDHFEEVSKEADGLVLINIDHGSITYSKSTDDNVDIPDVPLLAAQTFIQRVQSLQLHHELHAAHLLSSTDLKEGRAHRRSWQQKLNCQIQQTTLQLLVSIFRDVKNHLNYEHRVFNSEEFLKTRAPGDHQFYKQVLDTYMFHSFLKARLNRRMDAFAQMDLDTQSEEDRINGMLLSPRRPTVEKRASRKSSHLHVTHRRMVVSMPNLQDIAMPELAPRNSSLRLTDTAGCRGSSAVLNVTPKSPYTFKIPEIHFPLESKCVQAYHAHFVSMLSEAMCFLAPDNSLLLARYLYLRGLVYLMQGQLLNALLDFQNLYKTDIRIFPTDLVKRTVESMSAPEWEGAEQAPELMRLISEILDKPHEASKLDDHVKKFKLPKKHMQLGDFMKRVQESGIVKDASIIHRLFEALTVGQEKQIDPETFKDFYNCWKETEAEAQEVSLPWLVMEHLDKNECVCKLSSSVKTNLGVGKIAMTQKRLFLLTEGRPGYLEISTFRNIEEVRRTTTTFLLRRIPTLKIRVASKKEVFEANLKTECDLWHLMVKEMWAGKKLADDHKDPHYVQQALTNVLLMDAVVGTLQSPGAIYAASKLSYFDKMSNEMPMTLPETTLETLKHKINPSAGEAFPQAVDVLLYTPGHLDPAEKVEDAHPKLWCALSEGKVTVFNASSWTIHQHSFKVGTAKVNCMVMADQNQVWVGSEDSVIYIINVHSMSCNKQLTAHCSSVTDLIVQDGQEAPSNVYSCSMDGMVLVWNVSTLQVTSRFQLPRGGLTSIRLHGGRLWCCTGNSIMVMKMNGSLHQELKIEENFKDTSTSFLAFQLLPEEEQLWAACAGRSEVYIWSLKDLAQPPQRVPLEDCSEINCMIRVKKQVWVGSRGLGQGTPKGKIYVIDAERKTVEKELVAHMDTVRTLCSAEDRYVLSGSGREEGKVAIWKGE
B2: ClC-5 V523Δ, stably expressed in RPTEC/TERT1 cells depleted of endogenous CLCN5 (protein, UniProt P51795-1 1-746)
chain: MDFLEEPIPGVGTYDDFNTIDWVREKSRDRDRHREITNKSKESTWALIHSVSDAFSGWLLMLLIGLLSGSLAGLIDISAHWMTDLKEGICTGGFWFNHEHCCWNSEHVTFEERDKCPEWNSWSQLIISTDEGAFAYIVNYFMYVLWALLFAFLAVSLVKVFAPYACGSGIPEIKTILSGFIIRGYLGKWTLVIKTITLVLAVSSGLSLGKEGPLVHVACCCGNILCHCFNKYRKNEAKRREVLSAAAAAGVSVAFGAPIGGVLFSLEEVSYYFPLKTLWRSFFAALVAAFTLRSINPFGNSRLVLFYVEFHTPWHLFELVPFILLGIFGGLWGALFIRTNIAWCRKRKTTQLGKYPVIEVLVVTAITAILAFPNEYTRMSTSELISELFNDCGLLDSSKLCDYENRFNTSKGGELPDRPAGVGVYSAMWQLALTLILKIVITIFTFGMKIPSGLFIPSMAVGAIAGRLLGVGMEQLAYYHQEWTVFNSWCSQGADCITPGLYAMVGAAACLGGVTRMTVSLVIMFELTGGLEYIVPLMAAAMTSKWVADALGREGIYDAHIRLNGYPFLEAKEEFAHKTLAMDVMKPRRNDPLLTVLTQDSMTVEDVETIISETTYSGFPVVVSRESQRLVGFVLRRDLIISIENARKKQDGVVSTSIIYFTEHSPPLPPYTPPTLKLRNILDLSPFTVTDLTPMEIVVDIFRKLGLRQCLVTHNGRLLGIITKKDVLKHIAQMANQDPDSILFN
B3: ClC-5 WT (Cl-/H+ antiporter ClC-5), stably expressed in RPTEC/TERT1 cells depleted of endogenous CLCN5 (protein, UniProt P51795-1 1-746)
chain: MDFLEEPIPGVGTYDDFNTIDWVREKSRDRDRHREITNKSKESTWALIHSVSDAFSGWLLMLLIGLLSGSLAGLIDISAHWMTDLKEGICTGGFWFNHEHCCWNSEHVTFEERDKCPEWNSWSQLIISTDEGAFAYIVNYFMYVLWALLFAFLAVSLVKVFAPYACGSGIPEIKTILSGFIIRGYLGKWTLVIKTITLVLAVSSGLSLGKEGPLVHVACCCGNILCHCFNKYRKNEAKRREVLSAAAAAGVSVAFGAPIGGVLFSLEEVSYYFPLKTLWRSFFAALVAAFTLRSINPFGNSRLVLFYVEFHTPWHLFELVPFILLGIFGGLWGALFIRTNIAWCRKRKTTQLGKYPVIEVLVVTAITAILAFPNEYTRMSTSELISELFNDCGLLDSSKLCDYENRFNTSKGGELPDRPAGVGVYSAMWQLALTLILKIVITIFTFGMKIPSGLFIPSMAVGAIAGRLLGVGMEQLAYYHQEWTVFNSWCSQGADCITPGLYAMVGAAACLGGVTRMTVSLVVIMFELTGGLEYIVPLMAAAMTSKWVADALGREGIYDAHIRLNGYPFLEAKEEFAHKTLAMDVMKPRRNDPLLTVLTQDSMTVEDVETIISETTYSGFPVVVSRESQRLVGFVLRRDLIISIENARKKQDGVVSTSIIYFTEHSPPLPPYTPPTLKLRNILDLSPFTVTDLTPMEIVVDIFRKLGLRQCLVTHNGRLLGIITKKDVLKHIAQMANQDPDSILFN
B4: DDOST, endogenous in RPTEC/TERT1 cells (protein, UniProt P39656 43-456)
chain: SGPRTLVLLDNLNVRETHSLFFRSLKDRGFELTFKTADDPSLSLIKYGEFLYDNLIIFSPSVEDFGGNINVETISAFIDGGGSVLVAASSDIGDPLRELGSECGIEFDEEKTAVIDHHNYDISDLGQHTLIVADTENLLKAPTIVGKSSLNPILFRGVGMVADPDNPLVLDILTGSSTSYSFFPDKPITQYPHAVGKNTLLIAGLQARNNARVIFSGSLDFFSDSFFNSAVQKAAPGSQRYSQTGNYELAVALSRWVFKEEGVLRVGPVSHHRVGETAPPNAYTVTDLVEYSIVIQQLSNGKWVPFDGDDIQLEFVRIDPFVRTFLKKKGGKYSVQFKLPDVYGVFQFKVDYNRLGYTHLYSSTQVSVRPLQHTQYERFIPSAYPYYASAFSMMLGLFIFSIVFLHMKEKEKSD
B5: FUT8, endogenous in RPTEC/TERT1 cells (enzyme, UniProt Q9BYC5 1-575)
chain: MRPWTGSWRWIMLILFAWGTLLFYIGGHLVRDNDHPDHSSRELSKILAKLERLKQQNEDLRRMAESLRIPEGPIDQGPAIGRVRVLEEQLVKAKEQIENYKKQTRNGLGKDHEILRRRIENGAKELWFFLQSELKKLKNLEGNELQRHADEFLLDLGHHERSIMTDLYYLSQTDGAGDWREKEAKDLTELVQRRITYLQNPKDCSKAKKLVCNINKGCGYGCQLHHVVYCFMIAYGTQRTLILESQNWRYATGGWETVFRPVSETCTDRSGISTGHWSGEVKDKNVQVVELPIVDSLHPRPPYLPLAVPEDLADRLVRVHGDPAVWWVSQFVKYLIRPQPWLEKEIEEATKKLGFKHPVIGVHVRRTDKVGTEAAFHPIEEYMVHVEEHFQLLARRMQVDKKRVYLATDDPSLLKEAKTKYPNYEFISDNSISWSAGLHNRYTENSLRGVILDIHFLSQADFLVCTFSSQVCRVAYEIMQTLHPDASANFHSLDDIYYFGGQNAHNQIAIYAHQPRTADEIPMEPGDIIGVAGNHWDGYSKGVNRKLGRTGLYPSYKVREKIETVKYPTYPEAEK
B6: GALNT1, endogenous in RPTEC/TERT1 cells (enzyme, UniProt Q10472 1-559)
chain: MRKFAYCKVVLATSLIWVLLDMFLLLYFSECNKCDEKKERGLPAGDVLEPVQKPHEGPGEMGKPVVIPKEDQEKMKEMFKINQFNLMASEMIALNRSLPDVRLEGCKTKVYPDNLPTTSVVIVFHNEAWSTLLRTVHSVINRSPRHMIEEIVLVDDASERDFLKRPLESYVKKLKVPVHVIRMEQRSGLIRARLKGAAVSKGQVITFLDAHCECTVGWLEPLLARIKHDRRTVVCPIIDVISDDTFEYMAGSDMTYGGFNWKLNFRWYPVPQREMDRRKGDRTLPVRTPTMAGGLFSIDRDYFQEIGTYDAGMDIWGGENLEISFRIWQCGGTLEIVTCSHVGHVFRKATPYTFPGGTGQIINKNNRRLAEVWMDEFKNFFYIISPGVTKVDYGDISSRVGLRHKLQCKPFSWYLENIYPDSQIPRHYFSLGEIRNVETNQCLDNMARKENEKVGIFNCHGMGGNQVFSYTANKEIRTDDLCLDVSKLNGPVTMLKCHHLKGNQLWEYDPVKLTLQHVNSNQCLDKATEEDSQVPSIRDCNGSRSQQWLLRNVTLPEIF

What follows are binders tested against T1, ClC-5 V523Δ, stably expressed in RPTEC/TERT1 cells depleted of endogenous CLCN5 (human) (assay: affinity purification with mass spectrometry).

binding, binds:
B1
B2

What follows are binders tested against T2, ClC-5 WT (Cl-/H+ antiporter ClC-5), stably expressed in RPTEC/TERT1 cells depleted of endogenous CLCN5 (human) (assay: affinity purification with mass spectrometry).

binding, binds:
B3
B4
B5
B6
